This passage reports log2 fold change results from the supplement of paper PMC10849652.

Amino acid sequences for entries named in this document (tags omitted). A change or cut given only in a name is not applied to a line headed by its entry.
UniProt P41567, whole entry, looked up: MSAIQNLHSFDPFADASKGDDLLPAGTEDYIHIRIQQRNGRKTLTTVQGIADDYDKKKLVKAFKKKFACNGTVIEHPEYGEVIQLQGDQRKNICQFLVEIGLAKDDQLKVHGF
UniProt Q13011: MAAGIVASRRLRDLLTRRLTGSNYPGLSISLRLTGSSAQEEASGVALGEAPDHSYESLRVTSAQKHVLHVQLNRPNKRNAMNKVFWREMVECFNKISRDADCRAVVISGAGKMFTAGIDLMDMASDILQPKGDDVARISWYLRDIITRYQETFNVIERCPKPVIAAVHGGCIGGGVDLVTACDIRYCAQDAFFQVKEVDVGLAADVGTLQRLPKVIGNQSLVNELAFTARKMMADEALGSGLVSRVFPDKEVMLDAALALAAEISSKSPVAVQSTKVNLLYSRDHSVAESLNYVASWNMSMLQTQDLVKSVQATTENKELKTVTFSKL
UniProt Q14204, whole entry, looked up: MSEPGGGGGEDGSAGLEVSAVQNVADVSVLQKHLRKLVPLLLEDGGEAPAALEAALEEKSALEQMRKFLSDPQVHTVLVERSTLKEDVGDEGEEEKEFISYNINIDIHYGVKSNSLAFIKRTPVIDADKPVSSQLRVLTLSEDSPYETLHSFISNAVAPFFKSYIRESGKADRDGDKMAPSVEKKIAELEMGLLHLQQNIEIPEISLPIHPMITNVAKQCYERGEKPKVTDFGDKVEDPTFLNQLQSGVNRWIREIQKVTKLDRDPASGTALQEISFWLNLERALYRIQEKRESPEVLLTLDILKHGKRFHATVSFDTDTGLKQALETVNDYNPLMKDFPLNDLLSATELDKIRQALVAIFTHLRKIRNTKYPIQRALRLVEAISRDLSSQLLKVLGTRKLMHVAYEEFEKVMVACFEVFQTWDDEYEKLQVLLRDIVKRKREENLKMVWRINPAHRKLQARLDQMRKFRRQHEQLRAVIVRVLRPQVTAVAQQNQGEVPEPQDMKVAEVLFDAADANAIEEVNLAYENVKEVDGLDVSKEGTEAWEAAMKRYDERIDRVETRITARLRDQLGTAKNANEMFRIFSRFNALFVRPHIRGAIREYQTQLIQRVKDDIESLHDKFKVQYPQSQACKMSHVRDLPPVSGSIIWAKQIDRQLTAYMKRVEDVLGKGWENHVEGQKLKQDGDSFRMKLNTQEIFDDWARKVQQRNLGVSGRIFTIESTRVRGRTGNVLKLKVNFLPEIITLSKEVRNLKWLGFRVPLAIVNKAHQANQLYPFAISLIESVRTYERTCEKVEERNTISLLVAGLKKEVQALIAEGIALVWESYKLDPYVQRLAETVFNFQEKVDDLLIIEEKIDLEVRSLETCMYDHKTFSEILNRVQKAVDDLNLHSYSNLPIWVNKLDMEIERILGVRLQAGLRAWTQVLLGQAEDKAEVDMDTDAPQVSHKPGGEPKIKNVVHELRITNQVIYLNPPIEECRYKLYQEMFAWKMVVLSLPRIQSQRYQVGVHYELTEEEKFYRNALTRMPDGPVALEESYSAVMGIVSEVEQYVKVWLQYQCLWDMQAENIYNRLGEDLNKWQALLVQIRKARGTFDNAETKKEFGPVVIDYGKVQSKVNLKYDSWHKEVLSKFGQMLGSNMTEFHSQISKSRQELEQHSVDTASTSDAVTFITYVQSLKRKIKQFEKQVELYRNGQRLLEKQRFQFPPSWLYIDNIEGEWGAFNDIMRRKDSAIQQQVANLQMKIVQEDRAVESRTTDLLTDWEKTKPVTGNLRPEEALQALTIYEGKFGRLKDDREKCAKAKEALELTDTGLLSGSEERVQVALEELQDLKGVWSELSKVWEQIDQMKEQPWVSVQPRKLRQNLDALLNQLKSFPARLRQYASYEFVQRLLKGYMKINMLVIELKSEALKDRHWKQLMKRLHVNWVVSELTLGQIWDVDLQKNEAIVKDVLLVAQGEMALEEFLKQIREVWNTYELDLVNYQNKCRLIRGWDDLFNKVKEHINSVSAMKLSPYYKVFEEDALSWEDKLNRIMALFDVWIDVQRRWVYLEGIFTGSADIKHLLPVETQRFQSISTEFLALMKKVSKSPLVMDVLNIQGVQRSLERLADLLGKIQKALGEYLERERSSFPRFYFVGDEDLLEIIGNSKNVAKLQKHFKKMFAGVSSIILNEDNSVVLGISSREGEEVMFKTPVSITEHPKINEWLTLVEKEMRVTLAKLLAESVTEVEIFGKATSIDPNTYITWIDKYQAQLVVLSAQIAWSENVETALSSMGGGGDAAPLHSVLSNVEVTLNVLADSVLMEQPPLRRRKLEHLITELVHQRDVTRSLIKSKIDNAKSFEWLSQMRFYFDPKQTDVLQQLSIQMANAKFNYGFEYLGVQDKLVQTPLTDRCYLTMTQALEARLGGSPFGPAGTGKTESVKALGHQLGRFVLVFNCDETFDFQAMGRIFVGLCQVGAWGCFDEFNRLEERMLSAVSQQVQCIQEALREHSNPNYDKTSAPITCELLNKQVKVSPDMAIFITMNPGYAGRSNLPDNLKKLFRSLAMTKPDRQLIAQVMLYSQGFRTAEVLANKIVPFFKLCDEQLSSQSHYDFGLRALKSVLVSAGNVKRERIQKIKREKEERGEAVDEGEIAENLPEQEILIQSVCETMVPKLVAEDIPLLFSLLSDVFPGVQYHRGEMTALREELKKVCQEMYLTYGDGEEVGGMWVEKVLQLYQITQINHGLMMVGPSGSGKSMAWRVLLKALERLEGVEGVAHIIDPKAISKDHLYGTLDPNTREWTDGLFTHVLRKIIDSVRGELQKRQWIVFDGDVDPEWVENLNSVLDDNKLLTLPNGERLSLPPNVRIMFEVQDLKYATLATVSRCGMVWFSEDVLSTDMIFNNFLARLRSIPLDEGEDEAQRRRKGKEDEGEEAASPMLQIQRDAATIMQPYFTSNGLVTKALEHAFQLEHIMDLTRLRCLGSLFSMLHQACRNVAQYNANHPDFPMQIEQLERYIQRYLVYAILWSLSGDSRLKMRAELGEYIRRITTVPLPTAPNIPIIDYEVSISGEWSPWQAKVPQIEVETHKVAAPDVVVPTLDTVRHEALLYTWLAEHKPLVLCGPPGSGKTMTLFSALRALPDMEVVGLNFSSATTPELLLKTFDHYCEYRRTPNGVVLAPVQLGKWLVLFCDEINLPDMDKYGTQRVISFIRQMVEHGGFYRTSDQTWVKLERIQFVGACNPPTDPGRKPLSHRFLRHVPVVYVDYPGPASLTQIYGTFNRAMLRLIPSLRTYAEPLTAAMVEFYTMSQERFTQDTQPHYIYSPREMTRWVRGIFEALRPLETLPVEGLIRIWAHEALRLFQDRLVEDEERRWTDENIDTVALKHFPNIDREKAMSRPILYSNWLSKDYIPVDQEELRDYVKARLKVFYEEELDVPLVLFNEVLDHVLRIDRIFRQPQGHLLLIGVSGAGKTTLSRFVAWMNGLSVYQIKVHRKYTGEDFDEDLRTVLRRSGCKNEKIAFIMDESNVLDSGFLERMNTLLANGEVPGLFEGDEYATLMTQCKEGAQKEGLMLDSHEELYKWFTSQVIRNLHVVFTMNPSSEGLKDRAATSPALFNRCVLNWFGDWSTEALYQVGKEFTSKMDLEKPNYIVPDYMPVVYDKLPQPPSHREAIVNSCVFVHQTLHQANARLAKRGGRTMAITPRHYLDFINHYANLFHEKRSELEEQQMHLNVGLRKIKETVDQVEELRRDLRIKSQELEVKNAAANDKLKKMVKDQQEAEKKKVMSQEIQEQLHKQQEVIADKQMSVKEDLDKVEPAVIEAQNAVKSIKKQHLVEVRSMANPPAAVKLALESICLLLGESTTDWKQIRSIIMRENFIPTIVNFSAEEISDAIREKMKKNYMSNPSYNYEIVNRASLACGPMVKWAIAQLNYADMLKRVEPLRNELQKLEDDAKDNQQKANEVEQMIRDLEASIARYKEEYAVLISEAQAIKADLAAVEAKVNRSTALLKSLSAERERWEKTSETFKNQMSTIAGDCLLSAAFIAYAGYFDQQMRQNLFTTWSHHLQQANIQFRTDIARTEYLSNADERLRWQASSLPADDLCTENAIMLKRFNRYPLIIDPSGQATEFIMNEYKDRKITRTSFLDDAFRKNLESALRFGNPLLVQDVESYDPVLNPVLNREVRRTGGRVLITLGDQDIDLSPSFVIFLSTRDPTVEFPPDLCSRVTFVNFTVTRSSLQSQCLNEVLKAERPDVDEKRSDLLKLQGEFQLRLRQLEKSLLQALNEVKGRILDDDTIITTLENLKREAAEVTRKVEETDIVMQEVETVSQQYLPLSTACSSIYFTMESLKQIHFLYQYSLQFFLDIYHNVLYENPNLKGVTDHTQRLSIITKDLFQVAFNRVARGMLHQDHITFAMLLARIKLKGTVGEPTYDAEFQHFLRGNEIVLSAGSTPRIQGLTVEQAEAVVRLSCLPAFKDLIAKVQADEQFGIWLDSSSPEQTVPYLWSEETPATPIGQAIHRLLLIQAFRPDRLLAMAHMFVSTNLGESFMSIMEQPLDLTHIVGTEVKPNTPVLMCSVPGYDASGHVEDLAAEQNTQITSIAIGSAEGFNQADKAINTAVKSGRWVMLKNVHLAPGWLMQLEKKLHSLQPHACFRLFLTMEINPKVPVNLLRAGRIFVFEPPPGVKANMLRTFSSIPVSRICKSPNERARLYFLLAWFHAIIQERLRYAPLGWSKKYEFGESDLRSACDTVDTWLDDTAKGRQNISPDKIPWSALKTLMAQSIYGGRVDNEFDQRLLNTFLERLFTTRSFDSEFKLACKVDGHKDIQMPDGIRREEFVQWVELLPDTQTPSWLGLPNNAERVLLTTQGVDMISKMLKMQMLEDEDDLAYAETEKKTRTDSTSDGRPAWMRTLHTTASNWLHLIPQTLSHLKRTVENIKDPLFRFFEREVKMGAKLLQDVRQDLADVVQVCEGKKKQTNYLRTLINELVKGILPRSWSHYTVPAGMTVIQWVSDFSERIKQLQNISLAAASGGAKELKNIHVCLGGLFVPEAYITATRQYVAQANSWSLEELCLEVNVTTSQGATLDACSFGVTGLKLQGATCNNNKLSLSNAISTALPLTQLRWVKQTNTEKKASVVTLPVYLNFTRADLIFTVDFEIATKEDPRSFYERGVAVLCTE
UniProt Q7Z2Z2: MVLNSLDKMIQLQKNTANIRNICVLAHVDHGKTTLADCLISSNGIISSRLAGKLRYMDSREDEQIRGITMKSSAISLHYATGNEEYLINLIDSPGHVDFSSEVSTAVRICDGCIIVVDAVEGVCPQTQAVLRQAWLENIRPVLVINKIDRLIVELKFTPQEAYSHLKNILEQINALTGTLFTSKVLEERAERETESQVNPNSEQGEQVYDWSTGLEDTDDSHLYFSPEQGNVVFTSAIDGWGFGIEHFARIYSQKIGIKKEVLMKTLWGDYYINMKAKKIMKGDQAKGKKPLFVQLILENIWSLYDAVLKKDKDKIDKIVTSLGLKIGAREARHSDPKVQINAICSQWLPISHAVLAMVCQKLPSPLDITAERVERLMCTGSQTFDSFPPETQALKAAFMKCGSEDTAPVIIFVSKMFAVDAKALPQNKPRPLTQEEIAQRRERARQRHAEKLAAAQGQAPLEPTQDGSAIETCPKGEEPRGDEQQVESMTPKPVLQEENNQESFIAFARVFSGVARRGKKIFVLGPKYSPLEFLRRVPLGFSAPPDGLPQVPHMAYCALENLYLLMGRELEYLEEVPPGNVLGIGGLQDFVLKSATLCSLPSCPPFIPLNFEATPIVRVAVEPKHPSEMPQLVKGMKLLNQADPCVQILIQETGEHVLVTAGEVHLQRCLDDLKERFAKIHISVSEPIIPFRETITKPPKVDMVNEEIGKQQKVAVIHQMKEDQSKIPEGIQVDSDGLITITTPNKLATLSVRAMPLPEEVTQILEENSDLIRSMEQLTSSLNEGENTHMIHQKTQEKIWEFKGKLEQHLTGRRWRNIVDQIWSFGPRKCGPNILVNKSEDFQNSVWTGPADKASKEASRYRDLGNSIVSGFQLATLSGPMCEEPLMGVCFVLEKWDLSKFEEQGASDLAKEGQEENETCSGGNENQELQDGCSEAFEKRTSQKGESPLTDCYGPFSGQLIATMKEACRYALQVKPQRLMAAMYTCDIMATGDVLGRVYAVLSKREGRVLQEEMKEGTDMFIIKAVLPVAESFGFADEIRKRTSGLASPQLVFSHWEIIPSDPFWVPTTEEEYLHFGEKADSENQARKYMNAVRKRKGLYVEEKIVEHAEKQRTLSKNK
UniProt O60869: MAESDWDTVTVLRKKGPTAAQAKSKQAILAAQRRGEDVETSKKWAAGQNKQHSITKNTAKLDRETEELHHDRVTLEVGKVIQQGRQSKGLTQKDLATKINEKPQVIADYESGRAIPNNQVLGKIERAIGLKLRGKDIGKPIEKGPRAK
EEF1AKMT2, A0A494BZY7, UniProt A0A494BZY7, whole entry, looked up: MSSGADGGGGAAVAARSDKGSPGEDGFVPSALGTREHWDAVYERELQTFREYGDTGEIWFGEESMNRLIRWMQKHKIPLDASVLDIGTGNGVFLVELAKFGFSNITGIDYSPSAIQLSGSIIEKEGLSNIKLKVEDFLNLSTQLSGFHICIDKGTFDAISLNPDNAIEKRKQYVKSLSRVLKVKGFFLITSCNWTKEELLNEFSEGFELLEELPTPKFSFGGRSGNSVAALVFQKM

The other results are listed elsewhere or left out.

Compound in the first test: CN1CCc2c(c3ccccc3n2Cc2ccc(C(=O)NO)cc2)C1 [Tubastatin A]
The experiment in a line: log2 fold change, soluble protein after heating vs DMSO (PISA); higher = thermal stabilisation; K562 lysate, 10 uM; active = over 0.2 and 3.5 SD of the protein, either way, in both replicates (recomputed). In outline:
(§1)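 Quantification was by TMTpro 16plex LC-MS/MS with equalised channel sums, applied to the supernatant after 21,000xg for 90 min. Samples were crude K562 extract at 1 mg/mL protein in PBS pH 7.4 with 1 mM MgCl2, treated with 10 μM compound for 30 min, heated for 3 min across 48°C-58°C, pooled and brought to 0.5% NP-40 at 4°C. Values are log-two fold changes in thermal stability relative to solvent controls, from duplicates.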
Take EEF1A1P5 (UniProt Q5VTE0): the log2 fold change was inactive: -0.065.

Take DRG2 (UniProt P55039): the log2 fold change was inactive: -0.002.

In the case of DTYMK (UniProt P23919), the log2 fold change was inactive: -0.095.

As to EARS2 (UniProt Q5JPH6), the log2 fold change was inactive: -0.051.

Take EIF1 (UniProt P41567): the log2 fold change was inactive: 0.084.

On to EEF2 (UniProt P13639), for which the log2 fold change is inactive: 0.011.

EIF1AX (UniProt P47813): the log2 fold change was inactive: 0.034.

ECH1 (UniProt Q13011): the log2 fold change was active: 0.309.

Regarding EEF1B2 (UniProt P24534), the log2 fold change was inactive: 0.031.

Consider DUSP9 (UniProt Q99956), for which the log2 fold change is inactive: -0.178.

ECHDC3 (UniProt Q96DC8): the log2 fold change was inactive: 0.026.

With DR1 (UniProt Q01658), the log2 fold change is inactive: 0.066.

Take DPP7 (UniProt Q9UHL4): the log2 fold change is inactive: 0.011.

Turning to DYNLT1 (UniProt P63172), the log2 fold change was inactive: -0.098.

Consider DPH2 (UniProt Q9BQC3), for which the log2 fold change is inactive: 0.042.

DUSP23 (UniProt Q9BVJ7): the log2 fold change was inactive: 0.059.

Take DYNC1H1 (UniProt Q14204): the log2 fold change is inactive: -0.009.

With EFL1 (UniProt Q7Z2Z2), the log2 fold change was inactive: -0.034.

As for DPY19L1, A0A1B0GW05, the log2 fold change is inactive: -0.031.

As for EDF1 (UniProt O60869), the log2 fold change was inactive: 0.088.

As for EHMT2 (UniProt A2ABF8), the log2 fold change is inactive: -0.127.

Regarding E2F3 (UniProt O00716), the log2 fold change was inactive: -0.068.

In the case of EEF1AKMT2, A0A494BZY7, the log2 fold change is inactive: -0.065.

Regarding E2F4 (UniProt Q16254), the log2 fold change is inactive: -0.081.

In the case of DUSP12 (UniProt Q9UNI6), the log2 fold change is inactive: 0.019.

For the target DUT (UniProt P33316), the log2 fold change was inactive: 0.036.

Take DSG2 (UniProt Q14126): the log2 fold change is inactive: -0.004.

For the target EIF1AD (UniProt Q8N9N8), the log2 fold change was inactive: 0.034.

In the case of DPF2 (UniProt Q92785), the log2 fold change is inactive: 0.025.

Regarding EEF1AKNMT (UniProt Q8N6R0), the log2 fold change was inactive: -0.102.

On to EDEM3 (UniProt Q9BZQ6), for which the log2 fold change was inactive: -0.017.

EEF1G isoform 2 (UniProt P26641): the log2 fold change is inactive: -0.053.

Compound in the next test: CNC(=O)C1=CC=CC=C1NC2=NC(=NC=C2Cl)NC3=C(C=C(C=C3)N4CCOCC4)OC
Described as above. In outline: as §1
As to EEF1A1P5 (UniProt Q5VTE0), the log2 fold change is inactive: -0.021.

Turning to DRG2 (UniProt P55039), the log2 fold change was inactive: 0.025.

As for DTYMK (UniProt P23919), the log2 fold change is inactive: 0.01.

Regarding EARS2 (UniProt Q5JPH6), the log2 fold change was inactive: 0.043.

EIF1 (UniProt P41567): the log2 fold change is inactive: -0.039.

In the case of EEF2 (UniProt P13639), the log2 fold change was inactive: -0.012.

Turning to EIF1AX (UniProt P47813), the log2 fold change was inactive: 0.03.

For the target ECH1 (UniProt Q13011), the log2 fold change was inactive: -0.028.

As to EEF1B2 (UniProt P24534), the log2 fold change is inactive: -0.031.

With DUSP9 (UniProt Q99956), the log2 fold change was inactive: 0.012.

For the target ECHDC3 (UniProt Q96DC8), the log2 fold change is inactive: -0.001.

For the target DR1 (UniProt Q01658), the log2 fold change was inactive: -0.034.

With DPP7 (UniProt Q9UHL4), the log2 fold change is inactive: -0.032.

For the target DYNLT1 (UniProt P63172), the log2 fold change is inactive: -0.016.

Take DPH2 (UniProt Q9BQC3): the log2 fold change was inactive: -0.039.

Consider DUSP23 (UniProt Q9BVJ7), for which the log2 fold change is inactive: 0.05.

Turning to DYNC1H1 (UniProt Q14204), the log2 fold change is inactive: -0.003.

EFL1 (UniProt Q7Z2Z2): the log2 fold change was inactive: 0.043.

As for DPY19L1, A0A1B0GW05, the log2 fold change was inactive: 0.052.

For EDF1 (UniProt O60869), the log2 fold change was inactive: -0.021.

With EHMT2 (UniProt A2ABF8), the log2 fold change is inactive: 0.01.

Consider E2F3 (UniProt O00716), for which the log2 fold change was inactive: 0.038.

For the target EEF1AKMT2, A0A494BZY7, the log2 fold change was inactive: -0.078.

Consider E2F4 (UniProt Q16254), for which the log2 fold change is inactive: 0.059.

Consider DUSP12 (UniProt Q9UNI6), for which the log2 fold change is inactive: 0.034.

DUT (UniProt P33316): the log2 fold change is inactive: -0.002.

On to DSG2 (UniProt Q14126), for which the log2 fold change is inactive: 0.018.

With EIF1AD (UniProt Q8N9N8), the log2 fold change is inactive: 0.011.

DPF2 (UniProt Q92785): the log2 fold change was inactive: 0.028.

On to EEF1AKNMT (UniProt Q8N6R0), for which the log2 fold change is inactive: 0.051.

EDEM3 (UniProt Q9BZQ6): the log2 fold change was inactive: 0.022.

As to EEF1G isoform 2 (UniProt P26641), the log2 fold change was inactive: -0.015.
